No constants are given. Whether binding was seen depends on the method and setting. Binding seen in cells or lysates may run through a third protein. Some binding calls cover weakened binding; strength is not graded here.

Chains of the proteins cited; added tags and fusions are not shown. Lines headed by an entry give the natural chain unless they say otherwise; changes in a name come on top.
UniProt Q9UKI8: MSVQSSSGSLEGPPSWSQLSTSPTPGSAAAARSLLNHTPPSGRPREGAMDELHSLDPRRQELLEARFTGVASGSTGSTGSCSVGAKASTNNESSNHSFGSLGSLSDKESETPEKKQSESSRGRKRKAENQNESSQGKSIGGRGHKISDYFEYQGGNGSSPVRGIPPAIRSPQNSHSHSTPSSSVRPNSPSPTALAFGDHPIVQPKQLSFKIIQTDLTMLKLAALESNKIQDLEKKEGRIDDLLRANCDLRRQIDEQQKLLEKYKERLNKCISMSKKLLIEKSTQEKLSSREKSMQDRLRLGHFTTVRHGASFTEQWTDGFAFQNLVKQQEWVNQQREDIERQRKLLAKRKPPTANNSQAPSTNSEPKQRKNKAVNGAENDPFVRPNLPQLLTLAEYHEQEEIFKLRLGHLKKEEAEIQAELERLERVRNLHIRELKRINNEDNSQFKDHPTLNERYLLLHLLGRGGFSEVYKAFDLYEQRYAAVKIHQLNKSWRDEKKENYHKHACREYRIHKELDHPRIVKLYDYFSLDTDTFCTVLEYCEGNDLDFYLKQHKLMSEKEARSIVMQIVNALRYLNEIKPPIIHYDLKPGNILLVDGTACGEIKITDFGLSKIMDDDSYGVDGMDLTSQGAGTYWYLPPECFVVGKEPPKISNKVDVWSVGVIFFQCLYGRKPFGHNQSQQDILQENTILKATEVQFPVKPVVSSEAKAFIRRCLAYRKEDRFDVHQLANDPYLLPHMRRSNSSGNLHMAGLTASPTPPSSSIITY
UniProt P12004: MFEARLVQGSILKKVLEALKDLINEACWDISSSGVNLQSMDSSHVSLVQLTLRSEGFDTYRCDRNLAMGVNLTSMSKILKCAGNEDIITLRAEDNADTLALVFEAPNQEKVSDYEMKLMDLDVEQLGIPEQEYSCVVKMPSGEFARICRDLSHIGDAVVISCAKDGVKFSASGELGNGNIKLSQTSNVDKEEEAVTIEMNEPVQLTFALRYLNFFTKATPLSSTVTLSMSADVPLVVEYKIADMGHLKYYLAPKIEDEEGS

One substance from PMC11879137 can be followed below.

In assay [1] the target is SFB-TLK1 Y149A F150A D607A (human) (UniProt Q9UKI8). In words: pull-down; HEK293T transfected with SFB-tagged TLK1 or TLK2 constructs; streptavidin beads; PCNA detected by Western blot.
In another assay the target is SFB-TLK1 D607A (human) (UniProt Q9UKI8). Described as above.

Take PCNA (from UniProt P12004 1-261): the binding result in assay [1] was “no binding”; in the assay with SFB-TLK1 D607A (human) it was “binds”.
